# Reference: US20030049715A1, “Peptide biomarker and method of identification” (priority 2001, published 2003)
# Assay: LC-MS-MS quantification of collagen type II peptide biomarker in human urine
# Settings: FIG. 9, post-translation analog with 4-hydroxyproline at positions 14 and 26
# Text: A biological specimen, for example urine, is collected from the subject. The peptide, which can be referred to as the subject or target peptide, having the appropriate mass, for example m/z 918.7 for (M+3H)3+ (SEQ ID NO: 3) is extracted from the sample using procedures known to the art. See Example 4, below. The sample is spiked with a known quantity of a synthetic peptide (known as the internal standard) having a sequence very similar to the target peptide sequence. For example, peptide […](SEQ ID NO. 14), may be used as an internal standard. […] Comparison of the abundance of the target peptide (area under peak) to the abundance of a standard, normalized by the abundance of an internal standard indicates a relative quantity of target peptide in the sample. More particularly, the area under the curve representing the abundance of the standard peptide is compared to the area under the curve representing t he abundance of the target peptide to obtain a relative quantity of target peptide in a sample. […] Of course, acceptable methods of quantifying the target peptide in a biological sample are encompassed by the scope of the invention. A general quantitation procedure for collagen type II peptide biomarker in human urine is set out below in Example 4 as a representative procedure. […]
# 7. Solutions are analyzed by LC/MS/MS […]
sequence,measurement,setting,value
"LQGPAGPPGEKGEPGDDGPSGAEGPPGPQG [SEQ ID NO: 2, human collagen type II degradation peptide in urine]",relative abundance of the peptide in urine,human subject diagnosed with and demonstrating signs and symptoms of osteoarthritis,8000
same,relative abundance of the peptide in urine,urine from normal humans (not detected),0

# No end group written: not given here.
